Assay results: publication PMC10374971, “In vivo and in vitro characterizations of melibiose permease (MelB) conformation-dependent nanobodies reveal sugar-binding mechanisms” (The Journal of Biological Chemistry, 2023)
Results are given in words; binding and its absence hold for the method and conditions named. Some entries that bind do so weakly or less than the wild type. For some assays here: Where a sequence is shown, tags or fusion partners need not be part of it.

Amino acid sequences for entries named in this document (tags omitted). Residues count along the entry.
UniProt P30878, residues 6-476: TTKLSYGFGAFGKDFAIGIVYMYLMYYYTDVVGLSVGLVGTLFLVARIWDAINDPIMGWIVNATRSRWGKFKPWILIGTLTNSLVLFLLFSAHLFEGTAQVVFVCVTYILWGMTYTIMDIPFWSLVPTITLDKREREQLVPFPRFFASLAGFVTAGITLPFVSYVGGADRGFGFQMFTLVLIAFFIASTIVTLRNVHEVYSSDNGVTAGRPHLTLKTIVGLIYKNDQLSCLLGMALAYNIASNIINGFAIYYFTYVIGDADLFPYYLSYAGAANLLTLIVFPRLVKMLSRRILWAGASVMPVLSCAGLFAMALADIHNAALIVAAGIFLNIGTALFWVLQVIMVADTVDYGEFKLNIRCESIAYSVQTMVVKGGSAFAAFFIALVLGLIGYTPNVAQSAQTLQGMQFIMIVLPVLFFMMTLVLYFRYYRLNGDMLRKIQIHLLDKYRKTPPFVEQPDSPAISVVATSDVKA
UniProt P69783: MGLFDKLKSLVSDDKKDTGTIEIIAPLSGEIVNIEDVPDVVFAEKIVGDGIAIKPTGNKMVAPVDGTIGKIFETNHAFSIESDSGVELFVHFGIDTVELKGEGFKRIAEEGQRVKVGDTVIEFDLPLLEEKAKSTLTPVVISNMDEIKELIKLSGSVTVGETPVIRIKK

Key:
[1] = biological target: Salmonella enterica serovar Typhimurium melibiose permease (MelBSt), wild type (Salmonella enterica serovar Typhimurium) (UniProt P30878); assay: SEC; gel-filtration chromatography of mixed purified proteins; peak fractions analysed by SDS-15%PAGE; both purified
[2] = biological target: MelR, transcription activator of the melibiose operon melAB in E. coli, two-hybrid fusions MelR:T18 and T25:MelR (E. coli) (UniProt P0ACH8); assay: two-hybrid; bacterial adenylate cyclase (CyaA) T18/T25 two-hybrid in E. coli DH5α ΔcyaA; maltose MacConkey agar plates, 0.2 mM IPTG, 30 °C; red colonies positive

binding [2] | Molecule | binding [1]
 | EIIA^Glc of the glucose-specific phosphoenolpyruvate/sugar phosphotransferase system, unphosphorylated (from UniProt P69783 1-169) | binds
binds | MelR, transcription activator of the melibiose operon melAB in E. coli, two-hybrid fusions MelR:T18 and T25:MelR (protein, UniProt P0ACH8 1-302) MNTDTFMCSSDEKQTRSPLSLYSEYQRMEIEFRAPHIMPTSHWHGQVEVNVPFDGDVEYLINNEKVNINQGHITLFWACTPHQLTDTGTCQSMAIFNLPMHLFLSWPLDKDLINHVTHGMVIKSLATQQLSPFEVRRWQQELNSPNEQIRQLAIDEIGLMLKRFSLSGWEPILVNKTSRTHKNSVSRHAQFYVSQMLGFIAENYDQALTINDVAEHVKLNANYAMGIFQRVMQLTMKQYITAMRINHVRALLSDTDKSILDIALTAGFRSSSRFYSTFGKYVGMSPQQYRKLSQQRRQTFPG | 
